Source: article PMC5645493, “LAR-RPTP Clustering Is Modulated by Competitive Binding between Synaptic Adhesion Partners and Heparan Sulfate” (Frontiers in Molecular Neuroscience, 2017)

Chains of the proteins cited; added tags and fusions are not shown. Lines headed by an entry give the natural chain unless they say otherwise; changes in a name come on top.
UniProt Q13332: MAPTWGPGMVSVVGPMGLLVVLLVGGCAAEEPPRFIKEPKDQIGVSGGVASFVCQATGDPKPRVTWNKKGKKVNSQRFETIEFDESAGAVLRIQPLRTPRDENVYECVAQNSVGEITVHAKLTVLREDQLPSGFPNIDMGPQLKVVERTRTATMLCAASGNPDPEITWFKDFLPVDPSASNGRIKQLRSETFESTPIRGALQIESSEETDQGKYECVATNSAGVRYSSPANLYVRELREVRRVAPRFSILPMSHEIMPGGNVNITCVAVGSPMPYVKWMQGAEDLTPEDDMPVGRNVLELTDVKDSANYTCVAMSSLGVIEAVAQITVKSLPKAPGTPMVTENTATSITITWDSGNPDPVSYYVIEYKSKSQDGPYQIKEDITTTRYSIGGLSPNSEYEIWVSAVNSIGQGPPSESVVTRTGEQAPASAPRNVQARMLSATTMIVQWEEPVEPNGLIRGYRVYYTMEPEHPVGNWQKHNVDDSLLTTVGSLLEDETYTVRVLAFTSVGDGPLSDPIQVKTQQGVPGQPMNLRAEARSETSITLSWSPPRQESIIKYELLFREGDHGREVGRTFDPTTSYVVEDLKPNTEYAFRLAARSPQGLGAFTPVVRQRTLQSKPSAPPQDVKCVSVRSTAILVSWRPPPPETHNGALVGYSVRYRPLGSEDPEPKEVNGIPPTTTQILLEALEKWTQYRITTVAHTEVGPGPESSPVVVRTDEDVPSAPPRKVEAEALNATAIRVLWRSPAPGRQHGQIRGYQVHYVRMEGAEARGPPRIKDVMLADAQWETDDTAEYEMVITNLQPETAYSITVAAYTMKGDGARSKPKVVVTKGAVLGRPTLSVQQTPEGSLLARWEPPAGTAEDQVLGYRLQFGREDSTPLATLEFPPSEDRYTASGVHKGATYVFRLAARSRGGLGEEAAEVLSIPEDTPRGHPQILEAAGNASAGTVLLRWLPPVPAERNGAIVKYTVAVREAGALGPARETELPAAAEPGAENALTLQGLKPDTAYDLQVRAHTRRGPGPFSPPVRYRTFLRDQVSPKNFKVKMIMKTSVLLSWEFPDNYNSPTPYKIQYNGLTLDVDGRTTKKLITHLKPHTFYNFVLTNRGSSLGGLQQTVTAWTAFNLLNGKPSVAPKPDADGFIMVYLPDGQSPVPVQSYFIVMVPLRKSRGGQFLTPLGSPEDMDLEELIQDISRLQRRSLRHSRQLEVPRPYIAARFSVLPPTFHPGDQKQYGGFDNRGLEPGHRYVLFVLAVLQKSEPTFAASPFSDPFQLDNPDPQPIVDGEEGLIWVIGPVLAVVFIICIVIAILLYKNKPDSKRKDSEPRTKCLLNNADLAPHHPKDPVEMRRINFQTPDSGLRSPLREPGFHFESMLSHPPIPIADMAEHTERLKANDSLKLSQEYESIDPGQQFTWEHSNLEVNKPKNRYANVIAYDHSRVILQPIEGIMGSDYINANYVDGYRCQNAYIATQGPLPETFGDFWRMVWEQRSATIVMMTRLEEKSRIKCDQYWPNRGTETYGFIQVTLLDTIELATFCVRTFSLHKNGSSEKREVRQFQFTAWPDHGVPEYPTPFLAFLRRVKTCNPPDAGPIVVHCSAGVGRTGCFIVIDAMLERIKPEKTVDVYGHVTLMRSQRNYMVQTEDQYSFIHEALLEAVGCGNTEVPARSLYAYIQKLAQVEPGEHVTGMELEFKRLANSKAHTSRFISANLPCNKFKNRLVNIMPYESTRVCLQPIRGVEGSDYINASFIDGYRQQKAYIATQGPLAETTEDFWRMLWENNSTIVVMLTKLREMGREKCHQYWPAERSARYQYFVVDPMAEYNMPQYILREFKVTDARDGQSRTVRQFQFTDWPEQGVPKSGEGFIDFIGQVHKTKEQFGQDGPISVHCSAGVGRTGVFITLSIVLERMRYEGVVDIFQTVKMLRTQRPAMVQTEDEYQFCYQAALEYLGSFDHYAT
UniProt Q9NPH3: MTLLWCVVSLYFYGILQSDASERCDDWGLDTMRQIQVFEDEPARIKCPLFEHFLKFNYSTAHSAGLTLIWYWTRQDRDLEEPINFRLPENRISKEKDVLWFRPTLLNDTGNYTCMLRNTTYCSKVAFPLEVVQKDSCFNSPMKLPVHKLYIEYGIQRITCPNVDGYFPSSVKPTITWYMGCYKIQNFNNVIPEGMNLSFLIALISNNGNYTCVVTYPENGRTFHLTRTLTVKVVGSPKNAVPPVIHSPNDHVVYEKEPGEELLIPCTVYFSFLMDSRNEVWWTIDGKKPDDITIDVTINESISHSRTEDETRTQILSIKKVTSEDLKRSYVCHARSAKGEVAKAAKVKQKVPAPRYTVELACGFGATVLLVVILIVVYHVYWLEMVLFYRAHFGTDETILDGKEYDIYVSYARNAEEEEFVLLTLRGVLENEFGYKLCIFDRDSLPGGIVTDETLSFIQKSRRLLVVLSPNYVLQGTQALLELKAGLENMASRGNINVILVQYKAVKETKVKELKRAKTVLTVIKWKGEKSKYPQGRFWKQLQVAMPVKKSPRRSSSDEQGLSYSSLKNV

Experiments:
[1] = biological target: T1, human PTPδ Ig1-3(+/+) (human) (UniProt P23468); assay: condition: only with a 2-fold molar excess of heparan sulfate; SEC; with heparan sulfate: pre-formed complex incubated with a 2-fold molar excess of HS at 4°C for 3 h, or LAR-RPTP Ig1-3 pre-incubated with a 2-fold molar excess of HS and then with the partner; Superdex 200 10/300 GL, 10 mM Tris-HCl pH 8.0, 50 mM NaCl; both purified
T1 sequence: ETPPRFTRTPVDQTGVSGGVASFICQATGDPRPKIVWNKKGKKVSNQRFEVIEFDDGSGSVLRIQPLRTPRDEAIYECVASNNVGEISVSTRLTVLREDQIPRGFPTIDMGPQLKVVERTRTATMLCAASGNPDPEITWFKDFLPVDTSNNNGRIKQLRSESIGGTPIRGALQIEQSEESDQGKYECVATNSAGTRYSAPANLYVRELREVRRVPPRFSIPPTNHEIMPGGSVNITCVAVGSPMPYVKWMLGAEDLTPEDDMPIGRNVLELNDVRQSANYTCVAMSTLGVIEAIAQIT

[2] = biological target: T1, human PTPδ Ig1-3(+/+) (human); assay: SEC; partners incubated at a 1:1 molar ratio at 4°C for 3 h; Superdex 200 10/300 GL, 20 mM Tris-HCl pH 8.0, 50 mM NaCl; complex seen as forward shift of the peak, fractions on silver-stained SDS-PAGE; also pre-formed complexes with 2-fold molar excess of chondroitin sulfate; both purified
PTPσ Ig1-3(+/+) [3] = biological target: PTPσ Ig1-3(+/+) (UniProt Q13332); assay: condition: only with a 2-fold molar excess of heparan sulfate; SEC; with heparan sulfate: pre-formed complex incubated with a 2-fold molar excess of HS at 4°C for 3 h, or LAR-RPTP Ig1-3 pre-incubated with a 2-fold molar excess of HS and then with the partner; Superdex 200 10/300 GL, 10 mM Tris-HCl pH 8.0, 50 mM NaCl; both purified
PTPσ Ig1-3(+/+) [4] = biological target: PTPσ Ig1-3(+/+) (UniProt Q13332); assay: SEC; partners incubated at a 1:1 molar ratio at 4°C for 3 h; Superdex 200 10/300 GL, 20 mM Tris-HCl pH 8.0, 50 mM NaCl; complex seen as forward shift of the peak, fractions on silver-stained SDS-PAGE; also pre-formed complexes with 2-fold molar excess of chondroitin sulfate; both purified

IL-1RAcP Ig1-3 (from UniProt Q9NPH3) (domain or fragment)
binding [1]: no binding
binding [2]: binds

B1: Slitrk1 LRR1 (domain or fragment, UniProt Q96PX8 20-264)
chain: TGDVCKEKICSCNEIEGDLHVDCEKKGFTSLQRFTAPTSQFYHLFLHGNSLTRLFPNEFANFYNAVSLHMENNGLHEIVPGAFLGLQLVKRLHINNNKIKSFRKQTFLGLDDLEYLQADFNLLRDIDPGAFQDLNKLEVLILNDNLISTLPANVFQYVPITHLDLRGNRLKTLPYEEVLEQIPGIAEILLEDNPWDCTCDLLSLKEWLENIPKNALIGRVVCEAPTRLQGKDLNETTEQDLCPLK
binding (PTPσ Ig1-3(+/+) [3]): no binding
binding (PTPσ Ig1-3(+/+) [4]): binds

No constants are given. Whether binding was seen depends on the method and setting. For some of these results: A result given as binding can be weak or reduced; the word gives no strength.
